Experimental data published in paper PMC10344929, “Crosstalk between regulatory elements in disordered TRPV4 N-terminus modulates lipid-dependent channel activity” (Nature Communications, 2023).
Results are given in words; binding and its absence hold for the method and conditions named.

Experiments:
Assay in all cases: condition: 2 mg/mL loaded (SEC-MALS); 2-3 mg/mL (analytical SEC); SEC + SEC-MALS; Superdex200 Increase 10/300, 20 mM Tris pH 7, 300 mM NaCl, 1 mM DTT; SEC-MALS: 200 uL at 2 mg/mL loaded; analytical SEC: 250 uL at 2-3 mg/mL, 4 °C; both purified
[1] = target: Gallus gallus TRPV4 N-terminal domain (residues 2-382) (Gallus gallus)
[2] = target: Gallus gallus TRPV4 isolated ankyrin repeat domain (residues 135-382) (Gallus gallus)
[3] = target: Gallus gallus TRPV4 isolated intrinsically disordered region (residues 2-134) (Gallus gallus)

Gallus gallus TRPV4 N-terminal domain (residues 2-382) (from UniProt A0A1D5PXA5 2-382) (domain or fragment)
binding [1]: no binding

Gallus gallus TRPV4 isolated ankyrin repeat domain (residues 135-382) (from UniProt A0A1D5PXA5 135-382) (domain or fragment)
binding [2]: no binding

B1: Gallus gallus TRPV4 isolated intrinsically disordered region (residues 2-134) (domain or fragment, UniProt A0A1D5PXA5 2-134, looked up)
chain: ADPEDPRDAGDVLGDDSFPLSSLANLFEVEDTPSPAEPSRGPPGAVDGKQNLRMKFHGAFRKGPPKPMELLESTIYESSVVPAPKKAPMDSLFDYGTYRQHPSENKRWRRRVVEKPVAGTKGPAPNPPPILKV
notes: TRPV4, Gallus gallus, N-terminal intrinsically disordered region, residues 2-134; Made from the NTD vector by Gibson deletion; also called IDR; TRPV4 IDR; source: E. coli BL21-Gold(DE3), purified (Ni-NTA, Ulp-1 cleavage, reverse Ni-NTA, SEC); not shown: His6SUMO, N-terminal, cleaved
binding [3]: no binding
